Measurements published in paper PMC12594893.
No constants are given. Whether binding was seen depends on the method and setting. In cells and extracts the contact can be indirect. A result given as binding can be weak or reduced; the word gives no strength.

Chains of the proteins cited; added tags and fusions are not shown. Lines headed by an entry give the natural chain unless they say otherwise; changes in a name come on top.
UniProt Q6ZMG9: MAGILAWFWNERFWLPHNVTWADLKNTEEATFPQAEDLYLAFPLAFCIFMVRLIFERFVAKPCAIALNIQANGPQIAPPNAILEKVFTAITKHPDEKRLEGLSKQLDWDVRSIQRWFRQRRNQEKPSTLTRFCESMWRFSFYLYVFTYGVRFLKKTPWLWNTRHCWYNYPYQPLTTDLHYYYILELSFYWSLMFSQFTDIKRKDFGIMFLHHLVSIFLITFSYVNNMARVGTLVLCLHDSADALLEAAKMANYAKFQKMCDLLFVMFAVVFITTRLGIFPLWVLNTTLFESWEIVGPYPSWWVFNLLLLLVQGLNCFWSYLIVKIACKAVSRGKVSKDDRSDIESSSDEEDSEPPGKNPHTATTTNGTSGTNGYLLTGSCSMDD

Biological target: CERS6 Tram-Lag-CLN8 (TLC) domain (128-384), truncated CERS6 (human) (UniProt Q6ZMG9)
Assay: co-IP; truncated CERS6 (Hox domain 1-127, TLC domain 128-384) and RPN1; cells and tags not stated

B1: RPN1 as used in the co-immunoprecipitation with truncated CERS6 (protein, UniProt P04843 24-607)
chain: ASSEAPPLINEDVKRTVDLSSHLAKVTAEVVLAHLGGGSTSRATSFLLALEPELEARLAHLGVQVKGEDEEENNLEVRETKIKGKSGRFFTVKLPVALDPGAKISVIVETVYTHVLHPYPTQITQSEKQFVVFEGNHYFYSPYPTKTQTMRVKLASRNVESYTKLGNPTRSEDLLDYGPFRDVPAYSQDTFKVHYENNSPFLTITSMTRVIEVSHWGNIAVEENVDLKHTGAVLKGPFSRYDYQRQPDSGISSIRSFKTILPAAAQDVYYRDEIGNVSTSHLLILDDSVEMEIRPRFPLFGGWKTHYIVGYNLPSYEYLYNLGDQYALKMRFVDHVFDEQVIDSLTVKIILPEGAKNIEIDSPYEISRAPDELHYTYLDTFGRPVIVAYKKNLVEQHIQDIVVHYTFNKVLMLQEPLLVVAAFYILFFTVIIYVRLDFSITKDPAAEARMKVACITEQVLTLVNKRIGLYRHFDETVNRYKQSRDISTLNSGKKSLETEHKALTSEIALLQSRLKTEGSDLCDRVSEMQKLDAQVKELVLKSAVEAERLVAGKLKKDTYIENEKLISGKRQELVTKIDHILDAL
Q: Which binding does the source give for B1 here?
A: binds
